In patent US20200323790A1, “METHOD FOR TREATMENT OF ACUTE LUNG INJURY BY USE OF KIRENOL” (CHUNG SHAN MEDICAL UNIVERSITY, priority 2019, published 2020):
At least one structure is not confirmed: it was looked up by name or label, or the drawing left a doubt.

System: BALB/c mice
Assay: Histopathology (H&E) of lung in LPS-induced ALI mice
Format: in vivo
Settings: LPS 100 μg IT; kirenol 3, 10, 30 mg/kg IP or dexamethasone 1 mg/kg IP 30 min before LPS; 6 h after LPS; FIG. 1
Procedure: BALB/c mice (5-7 weeks old) are obtained from the National Laboratory Animal Center (NLAC) and maintained in the laboratory for a week in order to adapt to the environment. Then experiments are carried out as follows. The mice are divided into three groups. The control group: mice in the group are injected with normal saline by intratracheal injection (IT). The LPS stimulated group: mice in the group are treated with a 50 μL solution containing 100 μg of lipopolysaccharide (LPS) by IT for inducing ALI. The kirenol group: mice are given an intraperitoneal injection (IP) of 3 mg/kg, 10 mg/kg, and 30 mg/kg of kirenol respectively. After 30 minutes, each mouse is treated with 100 μg of LPS by IT. The dexamethasone group: mice are dosed with 1 mg/kg of dexamethasone by IP and then treated with 100 μg of LPS by IT after 30 minutes.
The mice in the respective group are killed 6 hours after LPS administration. Then use bronchoalveolar lavage (BAL) to get (Bronchoalveolar lavage fluid (BALF). And perform differential blood count, detect neutrophil activity and measure protein content in BALF. The lung tissue of the mice is used in histopathology examination, analysis of pulmonary edema, lipid peroxidation assay, and antioxidant activity analysis.
Kirenol used is obtained from ChemFaces (Catalog No. CFN98867) dissolved in Dimethyl sulfoxide (DMSO). […]

C[C@@H]1C[C@H]2[C@@H]3CCC4=CC(=O)C=C[C@]4(C)[C@@]3(F)[C@@H](O)C[C@]2(C)[C@@]1(O)C(=O)CO [dexamethasone, reference compound]
hyaline membrane formation in lung: significantly improved | immune cell infiltration in lung: significantly improved
